The values that follow come from US20240190985A1.

Test [1] addresses SAV-CD99 complex (biotinylated CD99 ECD tetramerized on streptavidin) (human). The experiment in a line: titration of tetramerized CD99 on yeast-displayed scFv.
For test [2] the target is unchanged. Briefly: yeast display, binding signal with 100 nM SAV-CD99 complex (FIG. 5E).
Test [3] deals with T1, mouse CD99 (mouse) (UniProt Q8VCN6).
T1 sequence (looked up): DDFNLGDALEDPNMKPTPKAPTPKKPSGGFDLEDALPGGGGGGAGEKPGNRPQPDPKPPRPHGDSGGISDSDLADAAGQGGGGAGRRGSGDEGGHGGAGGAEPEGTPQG
Briefly: binding of 1 µM Fv scFv-Fc to CD99 from different species (FIG. 1C).

Test [4] concerns the target T2, CD99 endogenously expressed on cells (Jurkat, KOPT-K1) (human) (UniProt P14209).
T2 sequence (chain, O-linked glycosylation (natural, on cells)): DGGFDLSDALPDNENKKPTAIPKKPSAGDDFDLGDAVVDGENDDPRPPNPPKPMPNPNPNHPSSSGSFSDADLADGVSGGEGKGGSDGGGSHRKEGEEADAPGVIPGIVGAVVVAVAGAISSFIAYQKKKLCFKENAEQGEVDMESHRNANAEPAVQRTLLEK
The experiment in a line: flow cytometry on Jurkat cells (FIG. 1E). Background: Flow cytometry measures light scatter and fluorescence of single cells or particles in a stream.

In test [5] the target is T1, mouse CD99 (mouse). The experiment in a line: binding of scFv-Fc to CD99 from different species (FIG. 1C).

Residue numbers refer to the chain shown, from its start. Results are given in words; binding and its absence hold for the method and conditions named. Some entries that bind do so weakly or less than the wild type. For some of these results: Where a sequence is shown, tags or fusion partners need not be part of it.

B1: 10A1 in the yeast display format (scFv, V domains shown)
VH: QVQLQQSGPVLVKPSQTLSLTCAISGDSISSDTTAWSWIRRSPSRGLEWLGWTYYRSKWFNYYAVSVKGRVTINPDTSKNQFSLQLSSVTPEDTAVYYCARGNGNGGMDVWGQGTTVTVSS
VL: SYVLTQPASASVSPGQTARITCSGDALPKQYAYWYQQKPGQAPVLVIFKDSERPSGVPERFSGSSSGTTVTLTISGAQAEDEADYYCQSVDNSGFYQVFGGGTQLTVL
Regarding B1, the binding result in test [1] is recorded as “binds”.

B2: 10A1 VL_K49A (yeast display format) (scFv, V domains shown)
VH: B1 VH
VL: B1 VL with K49A
For the molecule B2, the binding entry in test [2] is on record as “binds”.

B3: 10A1 VL_Y96A (yeast display format) (scFv, V domains shown)
VH: B1 VH
VL: B1 VL with Y96A
As for B3, in test [2], the binding result was “binds”.

B4: 10A1 VH_K58A (yeast display format) (scFv, V domains shown)
VH: B1 VH with K58A
VL: B1 VL
As for B4, in test [2], the binding result was “binds”.

B5: 10A1 VL_K29A (yeast display format) (scFv, V domains shown)
VH: B1 VH
VL: B1 VL with K29A
Turning to B5, in test [2], the binding result is reported as “binds”.

B6: 10A1 VH_F60A (yeast display format) (scFv, V domains shown)
VH: B1 VH with F60A
VL: B1 VL
In the case of B6, in test [2], the binding entry is reported as “binds”.

B7: 10A1 VH_N105A (yeast display format) (scFv, V domains shown)
VH: B1 VH with N105A
VL: B1 VL
On to B7, for which the binding result in test [2] is on record as “binds”.

B8: clone 10 in the scFv-Fc format (Fc fusion)
chain: QVQLQQSGPVLVKPSQTLSLTCAISGDSVSSDTTAWSWIRQSPSRGLEWLGWTYYRSKWFNYYAVSVKSRVTINPDTSKNQFSLQLSSVTPEDTAVYYCARGNGNGGMDVWGQGTTVTVSSGILGSGGGGSGGGGSGGGGSSYVLTQPPSVSVSPGQTARITCSGDALPKQYAYWYQQKPGQAPVLVIFKDSERPSGIPERFSGSSSGTTVTLTISGVQAEDEADYYCQSADNSGFYQVFGGGTQLTVLSGSSSSLEGCKPCICTVPEVSSVFIFPPKPKDVLTITLTPKVTCVVVDISKDDPEVQFSWFVDDVEVHTAQTQPREEQFNSTFRSVSELPIMHQDWLNGKEFKCRVNSAAFPAPIEKTISKTKGRPKAPQVYTIPPPKEQMAKDKVSLTCMITDFFPEDITVEWQWNGQPAENYKNTQPIMDTDGSYFVYSKLNVQKSNWEAGNTFTCSVLHEGLHNHHTEKSLSHSPGKGGGGLNDIFEAQKIEWHESRHHHHHH
B8: the binding entry (with mouse CD99 (mouse) [3]; in test [4]; in the test with mouse CD99 (mouse) [5]) was “binds” throughout.
